Values quoted from earlier work, collected in PMC11859423, “Fluorescent Probes to Image the KCa3.1 Channel in Tumor Cells” (Pharmaceutics, 2025).

System: KCa3.1 channels
Conditions: read-out: IC50 to block KCa3.1 channels; cited from earlier work

In the case of Clc1ccccc1C(c1ccccc1)(c1ccccc1)n1ccnc1 [clotrimazole], the IC50 is given as 70 to 250 nM.
